{"sequences": {"note": "Protein sequences, listed by entry. Tags and fused reporters are not part of them.", "UniProt P04637, whole entry, looked up": "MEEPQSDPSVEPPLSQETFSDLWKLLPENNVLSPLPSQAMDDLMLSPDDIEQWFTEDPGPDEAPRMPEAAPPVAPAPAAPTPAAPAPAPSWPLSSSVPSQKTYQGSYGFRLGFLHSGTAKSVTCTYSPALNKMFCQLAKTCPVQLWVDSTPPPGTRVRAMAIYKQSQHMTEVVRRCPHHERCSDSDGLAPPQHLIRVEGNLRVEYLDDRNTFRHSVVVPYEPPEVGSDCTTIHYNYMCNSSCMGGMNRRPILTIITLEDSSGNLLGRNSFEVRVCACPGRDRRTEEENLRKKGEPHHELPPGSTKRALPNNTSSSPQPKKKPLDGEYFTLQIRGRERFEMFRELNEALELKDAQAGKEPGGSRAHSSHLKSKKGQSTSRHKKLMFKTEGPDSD"}, "source": "PubChem BioAssay (EPA / NIEHS)", "key": {"[1]": {"target": "Cellular tumor antigen p53 (Homo sapiens) (UniProt P04637)", "test": "TOX21_p53_BLA_p5_ratio: Tox21 HCT-116 p53 Agonism Beta-lactamase Assay, Ratio, Phase 5 (AID 2283599)", "in_short": "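Beta-lactamase reporter ratio (blue 460 nm over green 530 nm, 405 nm excitation) after 2 h CCF4-AM loading, in HCT-116 cells exposed 16 h at 37 C to compounds pinned at 217-fold dilution. Increases relative to DMSO baseline scored.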"}, "[2]": {"test": "TOX21_p53_BLA_p5_viability: Viability Assessment in the Tox21 HCT-116 p53 Agonism Beta-lactamase Assay, Phase 5 (AID 2283600)", "in_short": "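Viability came from CellTiter-Glo ATP luminescence, read after 30 min at room temperature. Before this, HCT-116 p53-bla cells (4000/well) had 16 hours of compound exposure at 37C, with DMSO stocks diluted 217-fold on transfer.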"}, "[3]": {"target": "Cellular tumor antigen p53 (Homo sapiens) (UniProt P04637)", "test": "TOX21_p53_BLA_p4_ratio: Tox21 HCT-116 p53 Agonism Beta-lactamase Assay, Ratio, Phase 4 (AID 2283601)", "in_short": "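Signal is the blue/green (460nm/530nm) ratio of cleaved versus uncleaved CCF4-AM substrate, read after 2 h substrate loading. Cells were HCT116 carrying the p53-responsive beta-lactamase reporter, dosed 16 h at 37C, 5% CO2; CellTiter-Glo measured in parallel.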"}, "[4]": {"test": "TOX21_p53_BLA_p4_viability: Viability Assessment in the Tox21 HCT-116 p53 Agonism Beta-lactamase Assay, Phase 4 (AID 2283597);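 note: hits lower the luminescence signal meaning cytotoxicity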", "in_short": "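Cytotoxicity as reduced cellular ATP (CellTiter-Glo luminescence, 30 min room temperature), measured in the same wells following the CCF4 FRET p53 reading. Human HCT-116 cells received compounds in DMSO (217-fold dilution) for 16 h.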"}, "[5]": {"test": "Tanguay_ZF_120hpf_OTIC_legacy: (Legacy) Oregon State University Tanguay Lab 120 Hour Post-fertilization zebrafish Assay for Otic Vesicle Malformation (AID 2283639)", "in_short": "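Wild-type zebrafish larvae, whole-embryo exposure from early stage to 120 hpf at 28C. Binary brightfield scoring of otic vesicle morphology, fitted in the positive direction against the DMSO baseline.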"}}, "note": "Where “and” joins values, the source holds several entries; their conditions need not be identical. Equal values may be shown once. The inconclusive results got no clear call from the source; some entries with a clear call stand among them for comparison. Where the call is inconclusive, the potency comes from a doubtful curve fit. The source holds several records for some structures; these can differ, active in one and inactive in another. Calls of active or inactive are those of the source. Rule for the calls: active = hit-call score of the fitted dose curve at least 0.9, where 1 is the maximum; inconclusive = response in the unintended direction; inactive = score below 0.9."}
{"smiles": "CC(=O)CCc1ccccc1", "values": [{"measurement": "AC50", "setting": "[1]", "value": "inconclusive: 46.1 µM"}, {"measurement": "outcome", "setting": "[2]", "value": "inactive"}]}
{"smiles": "CCCCCCCC(=O)N(C)C", "values": [{"measurement": "outcome", "setting": "[1]", "value": "inactive"}]}
{"smiles": "CCCC/C=C\\CCCCCCCCCC=O", "values": [{"measurement": "outcome", "setting": "[1]", "value": "inactive"}]}
{"smiles": "Cc1cc(=O)oc2cc(O)ccc12", "values": [{"measurement": "AC50", "setting": "[1]", "value": "active: 65 µM and active: 38.4 µM"}, {"measurement": "outcome", "setting": "[1]", "value": "inactive"}, {"measurement": "outcome", "setting": "[2]", "value": "inactive"}, {"measurement": "AC50", "setting": "[3]", "value": "active: 53.2 µM and active: 54.1 µM"}, {"measurement": "outcome", "setting": "[3]", "value": "inactive"}]}
{"smiles": "CCc1cccc(O)c1", "values": [{"measurement": "AC50", "setting": "[1]", "value": "inconclusive: 46.9 µM"}, {"measurement": "outcome", "setting": "[1]", "value": "inactive"}, {"measurement": "AC50", "setting": "[2]", "value": "inconclusive: 46.9 µM"}, {"measurement": "outcome", "setting": "[2]", "value": "inactive"}]}
{"smiles": "Oc1ccc(Cc2ccccc2O)cc1", "values": [{"measurement": "AC50", "setting": "[1]", "value": "inconclusive: 33.4 µM"}, {"measurement": "outcome", "setting": "[1]", "value": "inactive"}, {"measurement": "AC50", "setting": "[2]", "value": "inconclusive: 46.1 µM and inconclusive: 5.04 nM"}, {"measurement": "AC50", "setting": "[3]", "value": "inconclusive: 9.14 µM and inconclusive: 87.3 µM"}]}
{"smiles": "Cc1oncc1C(=O)Nc1ccc(C(F)(F)F)cc1", "values": [{"measurement": "AC50", "setting": "[1]", "value": "inconclusive: 10.3 µM"}, {"measurement": "outcome", "setting": "[1]", "value": "inactive"}, {"measurement": "AC50", "setting": "[3]", "value": "inconclusive: 46.1 µM and inconclusive: 10.3 µM"}]}
{"smiles": "CN(C)C", "values": [{"measurement": "AC50", "setting": "[1]", "value": "inconclusive: 46.1 µM"}]}
{"smiles": "CCN(CC)CCOC(=O)c1ccc(N)cc1", "values": [{"measurement": "AC50", "setting": "[1]", "value": "inconclusive: 39.8 µM"}, {"measurement": "outcome", "setting": "[1]", "value": "inactive"}, {"measurement": "AC50", "setting": "[2]", "value": "inconclusive: 10.3 µM"}, {"measurement": "outcome", "setting": "[2]", "value": "inactive"}]}
{"smiles": "CC(=O)c1ccccn1", "values": [{"measurement": "AC50", "setting": "[1]", "value": "inconclusive: 46.6 µM"}, {"measurement": "outcome", "setting": "[1]", "value": "inactive"}, {"measurement": "outcome", "setting": "[2]", "value": "inactive"}, {"measurement": "AC50", "setting": "[3]", "value": "inconclusive: 46.1 µM and inconclusive: 46.6 µM"}]}
{"smiles": "Cc1ccc(N(C)C)cc1", "values": [{"measurement": "AC50", "setting": "[4]", "value": "inconclusive: 45.9 µM"}, {"measurement": "AC50", "setting": "[3]", "value": "inconclusive: 45.9 µM"}, {"measurement": "AC50", "setting": "[5]", "value": "inconclusive: 202 µM"}]}
{"smiles": "CCCCC(CC)COC(=O)CCCCCCCCC(=O)OCC(CC)CCCC", "note": "(centres undefined)", "values": [{"measurement": "AC50", "setting": "[4]", "value": "inconclusive: 46.1 µM"}, {"measurement": "AC50", "setting": "[3]", "value": "inconclusive: 46.1 µM"}]}
